# Laboratory results published in publication PMC8384837.
# Numbering of substitutions follows the chain as printed. Some of the results follow. For some of these results: At the low end of the ranking the order means little. For some of these results: The source does not settle which construct or isoform was used.
# How the values were obtained:
# Conditions in all cases: yeast three-hybrid, YBZ-1, SC-Leu-His + 0.5 mM 3-AT, 4 days
# [1] = target: T1, PUM1 PUF domain R1-QFR R2-VFQ R7-NPG S863Q + R864F + Q867R + N899V + Y900F + S1079N + N1080P + E1083G (UniProt Q14671)
# T1 sequence: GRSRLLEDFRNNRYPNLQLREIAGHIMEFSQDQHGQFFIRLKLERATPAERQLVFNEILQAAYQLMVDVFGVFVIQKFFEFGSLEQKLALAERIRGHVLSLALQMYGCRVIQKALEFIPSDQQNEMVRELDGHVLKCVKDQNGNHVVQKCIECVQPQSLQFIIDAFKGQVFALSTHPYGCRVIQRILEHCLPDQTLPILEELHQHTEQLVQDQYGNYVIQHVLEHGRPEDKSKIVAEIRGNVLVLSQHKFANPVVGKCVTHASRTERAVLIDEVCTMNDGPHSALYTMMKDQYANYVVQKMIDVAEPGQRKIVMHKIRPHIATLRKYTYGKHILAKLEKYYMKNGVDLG
# [2] = target: T2, PUM1 PUF domain R2-VFQ R3-THE R4-TFR N899V + Y900F + C935T + R936H + Q939E + N971T + H972F + Q975R (UniProt Q14671)
# T2 sequence: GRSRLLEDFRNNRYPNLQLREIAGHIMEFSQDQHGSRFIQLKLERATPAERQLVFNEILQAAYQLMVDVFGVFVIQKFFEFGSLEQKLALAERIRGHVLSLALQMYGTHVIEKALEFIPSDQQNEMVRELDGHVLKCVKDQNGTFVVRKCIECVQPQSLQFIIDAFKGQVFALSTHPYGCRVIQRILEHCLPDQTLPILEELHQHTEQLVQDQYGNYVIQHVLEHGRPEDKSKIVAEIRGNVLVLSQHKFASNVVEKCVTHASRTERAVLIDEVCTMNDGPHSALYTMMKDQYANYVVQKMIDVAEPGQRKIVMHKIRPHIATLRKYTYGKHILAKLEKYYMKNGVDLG
# [3] = target: T3, PUM1 PUF domain R3-THE R4-TFR C935T + R936H + Q939E + N971T + H972F + Q975R (UniProt Q14671)
# T3 sequence: T2 sequence with V72N, F73Y
# [4] = target: T4, PUM1 PUF domain R3-THE R4-TFR R7-NPG C935T + R936H + Q939E + N971T + H972F + Q975R + S1079N + N1080P + E1083G (Homo sapiens) (UniProt Q14671)
# T4 sequence: T2 sequence with V72N, F73Y, S252N, N253P, E256G
# [5] = target: T5, PUM1 PUF domain R5-PHQ R6-SWD C1007P + R1008H + N1043S + Y1044W + Q1047D (UniProt Q14671)
# T5 sequence: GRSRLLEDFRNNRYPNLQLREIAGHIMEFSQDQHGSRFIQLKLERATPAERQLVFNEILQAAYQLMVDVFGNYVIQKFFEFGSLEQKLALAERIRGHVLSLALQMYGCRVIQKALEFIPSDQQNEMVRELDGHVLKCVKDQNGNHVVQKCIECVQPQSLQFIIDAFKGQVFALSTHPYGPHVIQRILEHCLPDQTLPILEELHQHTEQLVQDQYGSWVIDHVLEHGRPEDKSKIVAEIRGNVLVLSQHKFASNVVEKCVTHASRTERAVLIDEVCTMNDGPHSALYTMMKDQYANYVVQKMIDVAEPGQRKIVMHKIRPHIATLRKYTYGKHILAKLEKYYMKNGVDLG
# [6] = target: T6, PUM1 PUF domain R2-VFQ R6-SWD R7-NPG N899V + Y900F + N1043S + Y1044W + Q1047D + S1079N + N1080P + E1083G (Homo sapiens) (UniProt Q14671)
# T6 sequence: T1 sequence with Q36S, F37R, R40Q, N216S, Y217W, Q220D
# [7] = target: T7, PUM1 PUF domain R3-THE R4-TFR R7-NPG C935T + R936H + Q939E + N971T + H972F + Q975R + S1079N + N1080P + E1083G (UniProt Q14671)
# T7 sequence: T2 sequence with V72N, F73Y, S252N, N253P, E256G
# [8] = target: T8, PUM1 PUF domain R6-SWD R7-NPG N1043S + Y1044W + Q1047D + S1079N + N1080P + E1083G (Homo sapiens) (UniProt Q14671)
# T8 sequence: T5 sequence with P180C, H181R, S252N, N253P, E256G
Sequence,binding signal (log2 enrichment (interaction score)) [1],binding signal (log2 enrichment (interaction score)) [2],binding signal (log2 enrichment (interaction score)) [3],binding signal (log2 enrichment (interaction score)) [4],binding signal (log2 enrichment (interaction score)) [5],binding signal (log2 enrichment (interaction score)) [6],binding signal (log2 enrichment (interaction score)) [7],binding signal (log2 enrichment (interaction score)) [8]
GGCUAGAACUAGUGGAUCCCCCGGCGCCCGGCGGCUCGAGCCCGGGUAAGUUUUAGUAGUCUGCAUGCCGCCGGGCGCCAUGCCUGCAGGUCGACUCUAGAAAACAUG,-5.47,< -6,-7.83,-1.78,-7.6,,,
GGCUAGAACUAGUGGAUCCCCCGGCGCCCGGCGGCUCGAGCCCGGGUAAGUACAAGAAGUCUGCAUGCCGCCGGGCGCCAUGCCUGCAGGUCGACUCUAGAAAACAUG,-6.21,-5.01,< -7.16,-1.46,< -7.06,,,
GGCUAGAACUAGUGGAUCCCCCGGCGCCCGGCGGCUCGAGCCCGGGUAAGUUGAAAAAGUCUGCAUGCCGCCGGGCGCCAUGCCUGCAGGUCGACUCUAGAAAACAUG,-4.41,-5.62,,,-7.78,-0.79,-2.32,-1.03
GGCUAGAACUAGUGGAUCCCCCGGCGCCCGGCGGCUCGAGCCCGGGUAAGGUAAAGAAGUCUGCAUGCCGCCGGGCGCCAUGCCUGCAGGUCGACUCUAGAAAACAUG,-5.36,-6.45,-5.77,-0.94,,,,
GGCUAGAACUAGUGGAUCCCCCGGCGCCCGGCGGCUCGAGCCCGGGUAAGGAUAGCUAGUCUGCAUGCCGCCGGGCGCCAUGCCUGCAGGUCGACUCUAGAAAACAUG,-5.94,-5.58,-7.27,,,,,
GGCUAGAACUAGUGGAUCCCCCGGCGCCCGGCGGCUCGAGCCCGGGUAAGAUGACUUAGUCUGCAUGCCGCCGGGCGCCAUGCCUGCAGGUCGACUCUAGAAAACAUG,-2.06,-4.35,< -6.53,,,,,
GGCUAGAACUAGUGGAUCCCCCGGCGCCCGGCGGCUCGAGCCCGGGUAAGCGUAGGUUGUCUGCAUGCCGCCGGGCGCCAUGCCUGCAGGUCGACUCUAGAAAACAUG,-4.83,-5.74,-6.64,-1.89,,,,
GGCUAGAACUAGUGGAUCCCCCGGCGCCCGGCGGCUCGAGCCCGGGUAAGUUCACAUAGUCUGCAUGCCGCCGGGCGCCAUGCCUGCAGGUCGACUCUAGAAAACAUG,-6.58,-5.64,-6.28,< -1.56,-8.32,,,
GGCUAGAACUAGUGGAUCCCCCGGCGCCCGGCGGCUCGAGCCCGGGUAAGAUUAGGAUGUCUGCAUGCCGCCGGGCGCCAUGCCUGCAGGUCGACUCUAGAAAACAUG,-6.66,-5.2,-6.88,,,,,
GGCUAGAACUAGUGGAUCCCCCGGCGCCCGGCGGCUCGAGCCCGGGUAAGUAUCCGUCGUCUGCAUGCCGCCGGGCGCCAUGCCUGCAGGUCGACUCUAGAAAACAUG,-4.37,-4.99,-6.73,,,,,
GGCUAGAACUAGUGGAUCCCCCGGCGCCCGGCGGCUCGAGCCCGGGUAAGUUGCCGAAGUCUGCAUGCCGCCGGGCGCCAUGCCUGCAGGUCGACUCUAGAAAACAUG,-4.1,-5.35,-6.23,-0.86,,,,
GGCUAGAACUAGUGGAUCCCCCGGCGCCCGGCGGCUCGAGCCCGGGUAAGUGUUAGCCGUCUGCAUGCCGCCGGGCGCCAUGCCUGCAGGUCGACUCUAGAAAACAUG,-5.92,-5.13,< -6.52,-1.64,,,,

# Part of the list above with just binding signal (log2 enrichment (interaction score)) [5] and binding signal (log2 enrichment (interaction score)) [2]:
Sequence | binding signal (log2 enrichment (interaction score)) [5] | binding signal (log2 enrichment (interaction score)) [2]
GGCUAGAACUAGUGGAUCCCCCGGCGCCCGGCGGCUCGAGCCCGGGUAAGUUGAAAAAGUCUGCAUGCCGCCGGGCGCCAUGCCUGCAGGUCGACUCUAGAAAACAUG | -7.78 | -5.62
GGCUAGAACUAGUGGAUCCCCCGGCGCCCGGCGGCUCGAGCCCGGGUAAGCGUAGGUUGUCUGCAUGCCGCCGGGCGCCAUGCCUGCAGGUCGACUCUAGAAAACAUG |  | -5.74
